According to publication PMC10781586:
No constants are given. Whether binding was seen depends on the method and setting. In cells and extracts the contact can be indirect. Some entries that bind do so weakly or less than the wild type. Sequences can lack the tags named with a protein.

By UniProt entry, the sequences of proteins in these tests, tags left out.
UniProt P22227: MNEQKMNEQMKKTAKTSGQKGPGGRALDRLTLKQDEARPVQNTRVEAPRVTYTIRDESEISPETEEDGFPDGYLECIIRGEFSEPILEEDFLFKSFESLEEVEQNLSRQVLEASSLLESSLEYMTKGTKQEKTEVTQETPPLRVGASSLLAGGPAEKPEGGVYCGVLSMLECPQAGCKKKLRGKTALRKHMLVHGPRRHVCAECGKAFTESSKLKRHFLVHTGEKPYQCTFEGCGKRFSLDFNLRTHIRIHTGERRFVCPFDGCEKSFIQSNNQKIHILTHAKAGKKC

Legend:
Experiment in all cases: co-IP; HA-RNF12 immunoprecipitated with anti-HA magnetic beads from 1 mg lysate of Rlim-/y; Zfp42-/- mESCs co-expressing FLAG-REX1, cells treated with MG132 for 2 h; overnight at 4°C; washes with lysis buffer with 500 mM NaCl; blot for FLAG-REX1
[1] = biological target: T1, HA-tagged mouse RNF12 WT (1-600) (mouse) (UniProt Q9WTV7)
T1 sequence: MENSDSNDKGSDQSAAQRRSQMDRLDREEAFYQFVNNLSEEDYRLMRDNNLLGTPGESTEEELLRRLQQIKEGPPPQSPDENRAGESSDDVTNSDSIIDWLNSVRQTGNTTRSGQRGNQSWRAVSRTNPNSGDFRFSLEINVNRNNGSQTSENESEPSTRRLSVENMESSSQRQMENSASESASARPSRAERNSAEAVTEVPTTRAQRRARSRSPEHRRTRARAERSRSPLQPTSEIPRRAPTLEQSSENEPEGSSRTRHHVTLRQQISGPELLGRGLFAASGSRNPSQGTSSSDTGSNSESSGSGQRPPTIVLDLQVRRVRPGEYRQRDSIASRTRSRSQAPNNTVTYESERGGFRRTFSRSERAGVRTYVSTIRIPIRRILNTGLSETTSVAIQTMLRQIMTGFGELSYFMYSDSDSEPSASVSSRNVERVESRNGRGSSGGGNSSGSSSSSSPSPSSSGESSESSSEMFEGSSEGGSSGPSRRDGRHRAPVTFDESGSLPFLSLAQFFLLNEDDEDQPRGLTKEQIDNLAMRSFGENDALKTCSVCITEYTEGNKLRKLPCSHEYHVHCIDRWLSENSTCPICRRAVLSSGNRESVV

[2] = biological target: T2, HA-tagged mouse RNF12 ΔBR2 (Δ349-381) (mouse) (UniProt Q9WTV7)
T2 sequence: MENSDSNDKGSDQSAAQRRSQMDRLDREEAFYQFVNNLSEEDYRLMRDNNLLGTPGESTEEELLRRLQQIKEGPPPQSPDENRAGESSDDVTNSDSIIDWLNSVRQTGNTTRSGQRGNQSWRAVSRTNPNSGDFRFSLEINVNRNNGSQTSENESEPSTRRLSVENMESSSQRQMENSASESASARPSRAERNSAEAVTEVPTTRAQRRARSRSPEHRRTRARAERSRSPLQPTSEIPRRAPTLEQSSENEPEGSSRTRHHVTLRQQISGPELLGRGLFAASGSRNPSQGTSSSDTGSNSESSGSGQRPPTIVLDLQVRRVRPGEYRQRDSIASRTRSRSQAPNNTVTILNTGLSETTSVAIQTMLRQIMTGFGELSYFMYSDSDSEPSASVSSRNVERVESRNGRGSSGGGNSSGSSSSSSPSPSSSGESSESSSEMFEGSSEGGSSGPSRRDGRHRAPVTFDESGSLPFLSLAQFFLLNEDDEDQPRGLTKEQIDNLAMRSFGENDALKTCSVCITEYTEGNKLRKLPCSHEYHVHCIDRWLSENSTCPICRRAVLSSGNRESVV

[3] = biological target: T3, HA-tagged mouse RNF12 ΔN (Δ1-206) (mouse) (UniProt Q9WTV7)
T3 sequence: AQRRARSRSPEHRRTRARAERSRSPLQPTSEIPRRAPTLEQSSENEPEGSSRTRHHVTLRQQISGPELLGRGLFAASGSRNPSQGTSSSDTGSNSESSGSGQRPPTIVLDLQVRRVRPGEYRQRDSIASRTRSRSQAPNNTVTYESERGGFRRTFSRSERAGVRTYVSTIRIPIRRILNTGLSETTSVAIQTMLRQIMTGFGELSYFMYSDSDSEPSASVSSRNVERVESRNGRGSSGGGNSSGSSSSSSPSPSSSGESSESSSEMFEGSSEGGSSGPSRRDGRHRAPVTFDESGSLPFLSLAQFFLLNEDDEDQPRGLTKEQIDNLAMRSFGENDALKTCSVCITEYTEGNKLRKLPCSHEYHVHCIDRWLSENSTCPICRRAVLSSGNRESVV

- binding [1]: binds
- binding [2]: binds
- binding [3]: binds
Substance: FLAG-REX1 (3XFLAG mouse Rex1) (from UniProt P22227 1-288)
